Screen size: about 52,000 sequences; about 210 (0.4%) were called active.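 The calls were made as follows: active = gene whose silencing raises cell survival under the drug, median off-target-corrected z-score across its silencing RNAs 2 or more; inactive = the rest.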 This is one part of the list.
assay: Resistance to Poly (ADP-Ribose) Polymerase inhibitor: Gene Identification via Genome-wide siRNA Screen; conditions: mouse BRCA2 R2336H ES cells, olaparib, CellTiter-Glo viability; stronger effect = higher value
Outline: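 Genome-wide siRNA screen (3 siRNAs/gene, 20 nM) in mouse ES cells carrying hypomorphic BRCA2 R2336H; olaparib 500 nM added 48 h post-transfection, CellTiter-Glo viability 72 h later. Normalized to plate-median negative control; MAD z-scores, gene median, seed-adjusted.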

| Sequence | z-score |
| --- | --- |
| CCCAGUAUGGUCCAUGAAGTT against 4930566A11Rik | inactive: 2.09 |
| CGGAUUGAUUUCUGAUGCGTT against Krt2-39 | inactive: -0.934 |
| GGAACCAGAGACAUUGUUUTT against Pola2 | inactive: -2.26 |
| GGAGAUACGGGACAGAGUGTT against Olfr655 | inactive: -1.65 |
| CCGUGAAAAAAUUAAACAGTT against Slk | inactive: 1.4 |
| GGAACAAAUGUUCGAAAUGTT against Eif4a2 | inactive: 0.734 |
| GCCCGGAAGUUUGUUAAAGTT against Mtrr | inactive: 0.168 |
| GGAGAAUAUCCUCCCAGGATT against Cdca2 | inactive: 0.0564 |
| GGCAAAUGGGAAGAAUUCCTT against Mep1b | inactive: -0.00969 |
| GGACCUAAAAAUGGUAUAUTT against Lrp1b | inactive: -2.48 |
| GGGCACCUAGUUUCCAUGATT against Cox7b | inactive: 2.21 |
| GGCAAAGACGACCUCUCACTT against BC032925 | inactive: 1.73 |
| GGUAAUGAUUUGUUAACAGTT against 5730446C15Rik | inactive: -0.674 |
| GGCAUUCCCAUCAAGAGCATT against Dncl2a | inactive: 0.483 |
| GGAUCCCAUUAGAAAGAAATT against Cbx2 | inactive: 0.093 |
| GCCUGCUAUUUAAUUCAUATT against B930006L02Rik | inactive: 0.0292 |
| GGCGAUAUUCUUAAUUAUCTT against 2210010L05Rik | inactive: 0.347 |
| GGAAAUAAGACUCAGGUCATT against Gtf2a1 | inactive: -1.44 |
| GCCGAAAUUGUGUCUCUGUTT against Insig1 | inactive: -0.737 |
| GGUUAUAACACCAGAUGGGTT against 4833421E05Rik | inactive: -0.283 |
| GGCCUUCAAGGUAUUCGACTT against Cabp7 | inactive: -0.7 |
| CCAUUCCUGGAGAUGGUUGTT against 5031410I06Rik | inactive: 1.44 |
| GCUUCAUAUAGACAAAGCCTT against Epo | inactive: 0.197 |
| CCCUGAACGCAUCACUAUCTT against Nlgn2 | inactive: -1.15 |
| GGAGAAGCAAACUGCACCUTT against Cacng6 | inactive: 0.673 |
| GGUGUAGCUCUUGAUUAAUTT against Icmt | inactive: 1.62 |

In another format: entries from further up.
Sequence	z-score
GGAACCAGAGACAUUGUUUTT against Pola2	inactive: -2.26
GGAGAUACGGGACAGAGUGTT against Olfr655	inactive: -1.65
CCGUGAAAAAAUUAAACAGTT against Slk	inactive: 1.4
GGAACAAAUGUUCGAAAUGTT against Eif4a2	inactive: 0.734

Further records

| Sequence | z-score |
| --- | --- |
| GCCCGGAAUUUCUCCUUCATT against ORF31 | inactive: -0.437 |
| GUGCUUUUCGACUGCAUGATT against BC021785 | inactive: 0.459 |
| CCCAUGAACAUUCCCUUAATT against Prdx1 | inactive: 1.01 |
| GGAGAAAUAGAUUCAGUGATT against 4933426L22Rik | inactive: -1.73 |
| GGUUCCUGGAUGGUUCCUATT against BC032925 | inactive: -1.26 |
| GGGUGCCCUUUGUCAUGUATT against Rapgef3 | inactive: 0.705 |
| GGUGGAUUUUGAAACUAUUTT against Pcdhb17 | inactive: 1.16 |
| GGUGGUACUUACUCAAAAUTT against Fgg | inactive: 0.299 |
| GGUUAUUACCCAGUUCACGTT against Pramel1 | inactive: -0.588 |
| GGCAGGUUUAACUUUAAUGTT against Cacna1e | inactive: -0.0891 |
| GCAUAUGGCACCACAUUGUTT against Psg25 | inactive: 0.258 |
| CCAAGAUGUGAAAUUCACCTT against Efnb2 | inactive: 1.51 |
| GGCAUGCUGAUGGAGUUUUTT against Vip | inactive: 0.725 |
| GGAAAACCAUACCAAAAUGTT against Hmox2 | inactive: -0.474 |
| CCCAGAUCCUUACUGACUGTT against Tada3l | inactive: -0.913 |
| GCCACCUGGUUAAAUUAAATT against Ceacam9 | inactive: 0.288 |
| GGAGGUAUUGGUUUCAUCCTT against Impdh2 | inactive: -1.46 |
| GCUGCACACUGGAAUCACATT against 2900060P06Rik | inactive: -1.99 |
| GGAAGCGAUAAUUUUAAGCTT against Tebp | inactive: 1.23 |
| GCCCAGUGUAUAUGCUACUTT against Pirb | inactive: 0.552 |
| GAAGCUCAACAACCAGUAUTT against Cited2 | inactive: -2.48 |
| GGACAUAGAGAAAACAUCUTT against 4933430I17Rik | inactive: 2.07 |
| GGAAAUGAAGACAUACCUGTT against Olfr174 | inactive: 1.33 |
| GCCACUGUUUGAUCUGAAATT against Fhod1 | inactive: 0.579 |
| GUGAUGUCACUAAUGCCAATT against 2410026K10Rik | inactive: 0.515 |
| GGUCAACCCAUUGUAUAAGTT against Socs5 | inactive: -0.185 |

| Sequence | z-score |
| --- | --- |
| CCUUGAUGCUCGUAGGAAGTT against C920006C10Rik | inactive: -0.101 |
| GGAGGGUCUCUAAUCUAUGTT against Slc38a4 | inactive: -0.871 |
| CCAAAAGGCGUAUUUUGGCTT against Anp32a | inactive: 0.11 |
| GGUGAAGAAUGCUACACAATT against Htr5a | inactive: 2.78 |
| GGUGGAUGAAAUCUACACATT against Gtpbp2 | inactive: -0.323 |
| GCUAAACUCGCUCAAUCUGTT against Cd14 | inactive: 1.6 |
| GGCCAAGAAAAUCCUGUGGTT against AW556797 | inactive: -2.13 |
| GGUCUUCUGUCCAUUAGUGTT against Pigc | inactive: 0.344 |
| GGAGAAAGCAGAAAUUGAATT against Mfap1 | inactive: -2.5 |
| GGAAGAUAGUGUUUUCCACTT against Olfr802 | inactive: 0.573 |
| GGUAACUUGAGAAACAUCCTT against 2700060E02Rik | inactive: 1.18 |
| GGUGAGGAAGUCCUGUGUCTT against Lynx1 | inactive: 0.272 |
| CGUCGUUAACAACACUUUGTT against Gns | inactive: 0.825 |
| GCUUUGUCCGCACAUUAUCTT against Hist2h3c2 | inactive: 0.315 |
| GGCUGAUCAUCCAGUCCAATT against Jund1 | inactive: -1.19 |
| GGAGAUGCAAAGCUACUCUTT against Epha8 | inactive: -1.26 |
| CGUACAAUAAUUUGUCUACTT against Slc9a6 | inactive: 0.634 |
| GGAGAUCAUCUUUUCUCAUTT against Rga | inactive: 1.86 |
| CCAUCCAAUAAGGUAAACATT against BC034753 | inactive: 2.81 |
| GGACACAUGGUGUUGACCATT against Zc3hdc1 | inactive: 0.305 |
| GGAUUGCUUUUGAGCAACATT against 5830436D01Rik | inactive: 1.92 |
| GGCCAUUCUGUCAAAUUCATT against Smpd1 | inactive: -0.00742 |
| GGCAUAAGAAAAUGGACCCTT against Fhit | inactive: 0.339 |
| GGGUCAUUCUGCUAUUCCUTT against Taar7d | inactive: -0.923 |
| AUAAAUAGGUAACAGAACCTT against Olfr121 | inactive: -1.52 |
| GGGUUUCUUCGUGUCUAUUTT against Pthr2 | inactive: -1.01 |

| Sequence | z-score |
| --- | --- |
| GGCUUUUUCUACAUGCGCCTT against Olfr1104 | inactive: -0.409 |
| GGAAGACGAGUUCAUUGUGTT against Rassf2 | inactive: -0.572 |
| GCUGCCGACCAUACUUUCCTT against Psme4 | inactive: 0.0795 |
| CGGAGCAUUGGGACAAUUUTT against Olfr690 | inactive: -0.493 |
| GGAUACUACAUGAAUCUUATT against Pip5k1b | inactive: -0.551 |
| GGAGAUGGUCUCAUUAAGCTT against Psmd13 | inactive: -1.84 |
| GGGCAAGGAGACAGAAUUCTT against Fgf18 | inactive: 1.83 |
| GGAGCUGCUGAACUGUAGUTT against Leprotl1 | inactive: 1.01 |
| GGCUUUAUGAGAGAGAUGATT against Cryga | inactive: -0.668 |
| GGGACUGAACCCUCUCAAATT against Lsp1 | inactive: 1.38 |
| UCUGAUCACACUGUUUGGATT against Olfr832 | inactive: -0.216 |
| GGAAAUACAAGCCUUAAAUTT against 5730502D15Rik | inactive: 0.0492 |
| GGAUCUAUUCUCUCUGAUGTT against A230083H22Rik | inactive: 0.244 |
| CCAGAGUAAUUCAUCAUACTT against Agxt | inactive: 0.738 |
| GGGAUCUUAAUGAAGAAGATT against Cd7 | inactive: 0.402 |
| GGCUUGUGCAAAUCCCACATT against Ppp1r14a | inactive: 0.74 |
| CCUUCCAUGUCUAAAAUGGTT against Aldh4a1 | inactive: -0.0755 |
| CCGAAACUGUUUGACCUCATT against Rasal1 | inactive: 0.214 |
| CCAAUCCUGAAUAAUGAGATT against 4931427F14Rik | inactive: 0.818 |
| CCAGGAUAACCGUAUUAAUTT against Gm2a | inactive: -0.226 |
| GGACAUCUGGUUAUGAAUGTT against B3galt6 | inactive: 1.14 |
| CGGAAACCACCUCUGCUAUTT against Catnd2 | inactive: 2.27 |
| GCAGGGUCAUAAUUGUUCUTT against Tpd52l1 | inactive: -1.11 |
| CGACUAAUAUGUCCCAGCUTT against AK122525 | inactive: -1.76 |
| CCAACCAGUUGAGUUCCAGTT against Nefl | inactive: -0.628 |
| GGAGGUUUAAUAAAGGCUUTT against G431004K08Rik | inactive: -0.736 |

As entered above:
Under z-score, GGCUUUAUGAGAGAGAUGATT against Cryga is listed with inactive: -0.668
Under z-score, GCUGCCGACCAUACUUUCCTT against Psme4 is listed with inactive: 0.0795
Under z-score, GGAGCUGCUGAACUGUAGUTT against Leprotl1 is listed with inactive: 1.01
